These are yes or no findings as the source states them, for the method shown. For part of these data: A result given as binding can be weak or reduced; the word gives no strength. Tags and fused reporters may be left off the sequences shown. Each block holds one binder with its values, some of them ahead of it.
Experiments:
[1] = biological target: Strep-RomY (Myxococcus xanthus); experiment: pull-down + cross-linking; Proteins at 20 μM each mixed 30 min RT in buffer C, DSP 200 μM for 5 min RT, quenched with 100 mM Tris pH 7.6, then Strep-Tactin coated magnetic beads with Strep-RomY as bait; MglA-His6 preloaded with GTP, 10 mM GTP; eluates run with or without 100 mM DTT; Coomassie, α-His6, α-MglA or α-MglB blots; both purified
[2] = biological target: Strep-RomY (Myxococcus xanthus); experiment: condition: only without DSP cross-linking (20 μM of each protein); pull-down; Strep-RomY as bait on Strep-Tactin coated magnetic beads, no cross-linker; 20 μM of each protein, 30 min RT, buffer C (20 mM HEPES pH 8.0, 150 mM NaCl, 5 mM MgCl2); MglA-His6 preloaded with GTP, 10 mM GTP (5 mM in washes); 10 washes; Coomassie and α-His6 blot; both purified
[3] = biological target: Strep-RomY (Myxococcus xanthus); experiment: condition: only MglA preloaded with GDP (20 μM of each protein); pull-down + cross-linking; As a3, with DSP, but MglA-His6 preloaded with GDP, 10 mM GDP; both purified
[4] = biological target: Strep-RomY (Myxococcus xanthus); experiment: condition: only MglA preloaded with GDP, without DSP cross-linking (20 μM of each protein); pull-down; As a1, no cross-linker, but MglA-His6 preloaded with GDP, 10 mM GDP (5 mM in washes); both purified
[5] = biological target: Strep-RomY (Myxococcus xanthus); experiment: condition: only without DSP cross-linking (MglA preloaded with GTP; 20 μM of each protein); pull-down; Strep-RomY as bait on Strep-Tactin coated magnetic beads, no cross-linker; 20 μM of each protein, 30 min RT, buffer C (20 mM HEPES pH 8.0, 150 mM NaCl, 5 mM MgCl2); MglA-His6 preloaded with GTP, 10 mM GTP (5 mM in washes); 10 washes; Coomassie and α-His6 blot; both purified

binding [1]: binds weakly | binding [2]: no binding
B1: His6-MglB (protein, UniProt Q1DB03 1-159)
chain: MGTQLVMYEEEFTKINAVCDRLTKDANAKVVFLVDKNGQLISSAGQTQNIDTTSLASLTAGNVAAMGGLAKLIGENEFPNQFHEGAKDSLYMTIVGSRVVLVVIFDNRTSLGLVRLRIKKASDELTKIFESLVKKTDSPGAGSPFAEISDDDIDNLFSE

binding [1]: binds weakly | binding [3]: no binding | binding [4]: no binding | binding [5]: no binding
B2: MglA-His6 (protein, UniProt Q1DB04 1-195)
chain: MSFINYSSREINCKIVYYGPGLCGKTTNLQYIYNKTAAETKGKLISLSTETDRTLFFDFLPLSLGEIRGFKTRFHLYTVPGQVFYDASRKLILKGVDGVVFVADSQIERMEANMESLENLRINLAEQGYDLNKIPYVIQYNKRDLPNAVTVEEMRKALNHRNIPEYQAVAPTGVGVFDTLKAVAKLVLTELKKGG
